No constants are given. Whether binding was seen depends on the method and setting. In cells and extracts the contact can be indirect. A yes stands for co-enrichment or nearness to the bait. Other partners may have been found.
These substances were tested against T1, endogenous ARHGAP25 (human (endogenous in neutrophilic granulocytes)) (UniProt P42331) (assay: affinity purification with mass spectrometry; co-immunoprecipitation of endogenous ARHGAP25: magnetic beads coated with polyclonal ARHGAP25 antibody (control: rabbit IgG) incubated with intact total neutrophil lysate, 45 min, 4 °C; washed thrice with PBST; eluates measured by mass spectrometry).
T1 sequence: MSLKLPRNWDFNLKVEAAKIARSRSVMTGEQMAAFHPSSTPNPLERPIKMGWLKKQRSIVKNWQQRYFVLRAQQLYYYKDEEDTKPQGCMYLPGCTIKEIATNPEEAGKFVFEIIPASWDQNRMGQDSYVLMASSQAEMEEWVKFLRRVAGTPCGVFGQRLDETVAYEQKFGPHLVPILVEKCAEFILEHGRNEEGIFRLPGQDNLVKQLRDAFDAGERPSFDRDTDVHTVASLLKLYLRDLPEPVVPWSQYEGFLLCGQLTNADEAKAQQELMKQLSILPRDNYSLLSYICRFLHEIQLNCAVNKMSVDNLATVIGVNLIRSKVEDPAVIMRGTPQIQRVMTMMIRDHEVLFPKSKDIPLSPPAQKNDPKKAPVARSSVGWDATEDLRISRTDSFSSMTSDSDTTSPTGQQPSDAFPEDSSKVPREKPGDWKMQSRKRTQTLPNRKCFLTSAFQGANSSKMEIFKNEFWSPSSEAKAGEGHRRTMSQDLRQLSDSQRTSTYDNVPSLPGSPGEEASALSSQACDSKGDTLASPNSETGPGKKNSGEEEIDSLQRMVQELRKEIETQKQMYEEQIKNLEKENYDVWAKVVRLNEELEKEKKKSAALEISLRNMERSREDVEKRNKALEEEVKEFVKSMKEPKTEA

Sequences of proteins named here, by UniProt entry; tags and fusion partners are left off. Residues count along the entry.
UniProt P62258: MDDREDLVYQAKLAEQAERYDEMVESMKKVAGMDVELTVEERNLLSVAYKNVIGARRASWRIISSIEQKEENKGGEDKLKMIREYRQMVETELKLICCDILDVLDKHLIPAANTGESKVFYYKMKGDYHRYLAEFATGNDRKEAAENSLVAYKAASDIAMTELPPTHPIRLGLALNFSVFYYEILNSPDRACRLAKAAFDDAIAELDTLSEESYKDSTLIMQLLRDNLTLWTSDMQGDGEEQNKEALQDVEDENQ
UniProt P84095: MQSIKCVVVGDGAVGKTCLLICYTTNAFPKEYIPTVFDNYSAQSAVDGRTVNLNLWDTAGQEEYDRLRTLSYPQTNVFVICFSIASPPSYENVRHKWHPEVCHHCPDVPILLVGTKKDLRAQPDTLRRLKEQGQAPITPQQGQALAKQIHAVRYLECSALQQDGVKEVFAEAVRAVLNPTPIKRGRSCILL
UniProt P18085: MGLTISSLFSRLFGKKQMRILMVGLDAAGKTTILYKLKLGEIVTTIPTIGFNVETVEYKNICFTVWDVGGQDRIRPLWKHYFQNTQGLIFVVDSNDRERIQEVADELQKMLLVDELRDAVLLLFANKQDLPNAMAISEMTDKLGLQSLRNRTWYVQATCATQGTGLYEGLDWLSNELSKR
UniProt Q05655: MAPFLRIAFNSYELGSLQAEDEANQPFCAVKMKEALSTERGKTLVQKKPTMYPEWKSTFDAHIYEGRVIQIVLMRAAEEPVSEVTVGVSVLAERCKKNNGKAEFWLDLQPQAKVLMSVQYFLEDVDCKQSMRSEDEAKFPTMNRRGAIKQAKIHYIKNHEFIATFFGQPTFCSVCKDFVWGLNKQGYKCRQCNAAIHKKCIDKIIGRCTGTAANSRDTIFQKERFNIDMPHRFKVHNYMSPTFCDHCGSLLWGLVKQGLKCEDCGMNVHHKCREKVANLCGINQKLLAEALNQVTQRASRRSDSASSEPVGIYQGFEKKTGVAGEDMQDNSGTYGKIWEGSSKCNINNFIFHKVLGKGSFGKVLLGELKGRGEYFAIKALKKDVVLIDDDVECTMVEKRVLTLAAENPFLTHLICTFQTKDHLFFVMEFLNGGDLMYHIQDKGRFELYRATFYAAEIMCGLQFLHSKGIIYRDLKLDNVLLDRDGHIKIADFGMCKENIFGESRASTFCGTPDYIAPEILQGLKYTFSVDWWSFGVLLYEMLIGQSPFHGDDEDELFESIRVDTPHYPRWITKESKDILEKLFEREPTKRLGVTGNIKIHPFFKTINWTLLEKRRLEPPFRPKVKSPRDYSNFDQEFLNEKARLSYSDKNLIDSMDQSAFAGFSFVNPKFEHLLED
UniProt P19878: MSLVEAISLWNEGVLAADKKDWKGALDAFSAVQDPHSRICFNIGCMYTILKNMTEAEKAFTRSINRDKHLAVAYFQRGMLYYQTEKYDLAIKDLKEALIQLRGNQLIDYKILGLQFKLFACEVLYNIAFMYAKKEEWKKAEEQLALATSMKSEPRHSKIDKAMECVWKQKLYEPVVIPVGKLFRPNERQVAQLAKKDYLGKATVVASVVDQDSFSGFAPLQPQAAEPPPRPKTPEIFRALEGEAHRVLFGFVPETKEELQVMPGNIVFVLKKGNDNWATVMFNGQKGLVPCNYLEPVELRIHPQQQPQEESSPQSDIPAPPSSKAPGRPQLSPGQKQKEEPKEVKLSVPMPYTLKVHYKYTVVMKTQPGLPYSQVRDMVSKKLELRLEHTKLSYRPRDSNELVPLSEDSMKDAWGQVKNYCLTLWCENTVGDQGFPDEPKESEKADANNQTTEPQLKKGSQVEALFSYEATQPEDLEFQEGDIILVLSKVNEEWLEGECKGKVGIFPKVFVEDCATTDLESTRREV
UniProt P63104: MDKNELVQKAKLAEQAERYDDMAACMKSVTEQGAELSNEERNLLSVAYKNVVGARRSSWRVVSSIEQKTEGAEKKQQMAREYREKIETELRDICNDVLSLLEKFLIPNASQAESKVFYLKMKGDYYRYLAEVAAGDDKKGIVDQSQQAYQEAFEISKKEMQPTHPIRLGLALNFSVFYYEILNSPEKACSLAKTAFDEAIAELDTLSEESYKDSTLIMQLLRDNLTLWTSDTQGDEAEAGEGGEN
UniProt P29350: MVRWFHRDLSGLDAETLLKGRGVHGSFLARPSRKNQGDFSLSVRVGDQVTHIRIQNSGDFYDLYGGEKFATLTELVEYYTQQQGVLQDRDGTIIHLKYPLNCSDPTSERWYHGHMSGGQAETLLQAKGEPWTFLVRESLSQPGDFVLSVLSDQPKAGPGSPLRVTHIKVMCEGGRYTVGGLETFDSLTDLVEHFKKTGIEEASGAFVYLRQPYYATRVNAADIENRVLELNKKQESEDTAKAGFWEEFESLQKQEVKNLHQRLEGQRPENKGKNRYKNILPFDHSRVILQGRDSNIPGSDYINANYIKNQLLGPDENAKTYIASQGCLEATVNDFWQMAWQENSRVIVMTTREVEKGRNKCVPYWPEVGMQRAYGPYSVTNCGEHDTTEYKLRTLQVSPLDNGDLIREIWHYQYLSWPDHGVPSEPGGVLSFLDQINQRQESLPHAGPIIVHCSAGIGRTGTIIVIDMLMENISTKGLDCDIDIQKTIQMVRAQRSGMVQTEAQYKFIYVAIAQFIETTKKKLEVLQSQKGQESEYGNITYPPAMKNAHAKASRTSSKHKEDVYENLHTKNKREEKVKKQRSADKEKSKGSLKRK
UniProt P30153: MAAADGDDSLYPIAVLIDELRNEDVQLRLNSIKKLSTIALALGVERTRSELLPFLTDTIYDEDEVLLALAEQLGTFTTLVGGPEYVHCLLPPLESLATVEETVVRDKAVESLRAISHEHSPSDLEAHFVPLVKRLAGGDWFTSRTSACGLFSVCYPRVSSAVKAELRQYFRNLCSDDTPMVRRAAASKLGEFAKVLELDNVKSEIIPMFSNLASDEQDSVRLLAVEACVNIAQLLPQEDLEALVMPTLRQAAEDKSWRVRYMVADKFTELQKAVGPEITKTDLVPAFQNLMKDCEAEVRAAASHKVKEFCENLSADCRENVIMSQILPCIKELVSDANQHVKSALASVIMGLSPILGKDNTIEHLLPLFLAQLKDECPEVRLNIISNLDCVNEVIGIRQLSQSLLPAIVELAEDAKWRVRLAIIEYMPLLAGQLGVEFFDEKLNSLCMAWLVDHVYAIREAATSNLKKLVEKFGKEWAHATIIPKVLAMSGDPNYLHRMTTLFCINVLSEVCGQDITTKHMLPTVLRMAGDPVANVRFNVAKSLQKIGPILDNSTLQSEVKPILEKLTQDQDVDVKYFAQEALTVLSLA
UniProt Q86UX7: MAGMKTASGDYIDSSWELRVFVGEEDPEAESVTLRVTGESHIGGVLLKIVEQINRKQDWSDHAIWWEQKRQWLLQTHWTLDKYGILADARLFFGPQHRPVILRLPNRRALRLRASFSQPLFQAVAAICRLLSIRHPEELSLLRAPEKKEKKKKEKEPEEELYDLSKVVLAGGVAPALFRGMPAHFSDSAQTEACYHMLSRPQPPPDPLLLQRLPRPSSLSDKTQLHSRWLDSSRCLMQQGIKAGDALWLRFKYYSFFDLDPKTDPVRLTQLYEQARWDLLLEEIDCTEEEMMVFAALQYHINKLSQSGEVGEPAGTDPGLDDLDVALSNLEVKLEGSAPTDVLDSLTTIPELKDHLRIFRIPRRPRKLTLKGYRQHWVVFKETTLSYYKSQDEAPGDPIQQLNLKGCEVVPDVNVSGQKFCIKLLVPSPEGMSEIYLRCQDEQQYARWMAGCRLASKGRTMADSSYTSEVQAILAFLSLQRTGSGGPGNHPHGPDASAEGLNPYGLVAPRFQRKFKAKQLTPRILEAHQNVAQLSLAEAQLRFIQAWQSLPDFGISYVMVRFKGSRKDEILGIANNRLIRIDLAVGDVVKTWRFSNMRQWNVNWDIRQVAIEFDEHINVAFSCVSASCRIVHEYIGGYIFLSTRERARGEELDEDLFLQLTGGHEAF
UniProt P07237, residues 18-508: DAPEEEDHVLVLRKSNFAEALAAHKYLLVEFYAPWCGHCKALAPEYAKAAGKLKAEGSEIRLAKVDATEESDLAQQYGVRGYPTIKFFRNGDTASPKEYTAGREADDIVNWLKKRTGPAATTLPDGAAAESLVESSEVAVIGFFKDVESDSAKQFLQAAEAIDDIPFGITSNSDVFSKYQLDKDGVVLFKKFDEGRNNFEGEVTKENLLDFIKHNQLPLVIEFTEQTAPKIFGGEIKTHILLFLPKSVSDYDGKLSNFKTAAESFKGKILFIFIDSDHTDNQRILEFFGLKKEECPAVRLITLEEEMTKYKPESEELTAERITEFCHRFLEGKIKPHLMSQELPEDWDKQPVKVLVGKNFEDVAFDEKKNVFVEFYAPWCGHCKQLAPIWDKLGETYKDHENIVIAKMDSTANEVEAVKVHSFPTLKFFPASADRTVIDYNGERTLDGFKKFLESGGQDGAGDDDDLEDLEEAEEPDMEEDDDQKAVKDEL

| Substance | binding |
| --- | --- |
| YWHAE (from UniProt P62258 1-255) | binds |
| RHOG (from UniProt P84095 1-191) | binds |
| ARF4 (from UniProt P18085 1-180) | binds |
| PRKCD (from UniProt Q05655 1-676) | binds |
| NCF2 (from UniProt P19878 1-526) | binds |
| YWHAZ (from UniProt P63104 1-245) | binds |
| FGR (from UniProt P09769 1-529) | binds |
| PTPN6 (from UniProt P29350 1-595) | binds |
| PPP2R1A (from UniProt P30153 1-589) | binds |

These substances were tested against GST-fused recombinant ARHGAP25 (human) (UniProt P42331) (assay: affinity purification with mass spectrometry; GST-ARHGAP25 (control: GST) on glutathione agarose beads incubated with intact total lysate of human neutrophilic granulocytes, 45 min, 4 °C; washed thrice with PBST; eluted by boiling in Laemmli buffer; LC-MS/MS, label-free quantification; only the target purified).

| Substance | binding |
| --- | --- |
| YWHAE (from UniProt P62258 1-255) | binds |
| RHOG (from UniProt P84095 1-191) | binds |
| ARF4 (from UniProt P18085 1-180) | binds |
| PRKCD (from UniProt Q05655 1-676) | binds |
| NCF2 (from UniProt P19878 1-526) | binds |
| YWHAZ (from UniProt P63104 1-245) | binds |
| FERMT3 (from UniProt Q86UX7 1-667) | binds |
| FGR (from UniProt P09769 1-529) | binds |
| P4HB (from UniProt P07237 18-508) | binds |
| PTPN6 (from UniProt P29350 1-595) | binds |
| PPP2R1A (from UniProt P30153 1-589) | binds |
